Measurements published in PubChem BioAssay AID588497 (NMMLSC, 2011).
Hit rate of the full screen: of about 360,000 compounds, about 780 (0.22%) were called active. This list was built around the results that the source calls inconclusive (neither active nor inactive); the mix of calls is not that of the screen. Cut-off read from the data, not from the text of the source: active = inhibition above about 35% (passing the limit was not always enough); inconclusive = no clear call, values can overlap the other calls.

What follows are compounds tested on Botulinum neurotoxin type F light chain protease (Clostridium botulinum) (assay: BoNT/F light chain protease inhibitors, primary screen, biochemical, flow cytometry, MLPCN library (AID 588497; note: plate controls were buffer without enzyme for full effect and enzyme alone for no effect)). Conditions: Multiplex microsphere protease cleavage assay, at 10 µM, stronger effect = higher value.
With `CC(C)c1ccc(OCC(O)CN2CCCC2)cc1` (stereo unspecified) the inhibition was inconclusive: -8%. For `O=C(O)/C=C\C(=O)Nc1cccc(C(=O)Nc2cccc(O)c2)c1`, the inhibition was inactive: -4.5%. In the case of `COc1ccc(-n2c(C)nc3ccccc3c2=O)c([N+](=O)[O-])c1`, the inhibition is reported as inconclusive: 17.5%. `CC(=O)Nc1ccc(NS(=O)(=O)c2cccc3nonc23)cc1` was tested, and the inhibition was inactive: 4.9%. With `COc1cc(C2(c3ccc(O)c(OC)c3)C(=O)Nc3c(C)cc(Br)cc32)ccc1O` the inhibition was inconclusive: 15.8%. With `CN(C)c1ccc(SC#N)cc1` the inhibition was inconclusive: 94.1%. With `CC(C)Oc1cccc(NC(=O)C2(C)CCCN2C(=O)C(C)C)c1` (stereo unspecified) the inhibition was inactive: -5.4%. `COC(=O)C1=CN(Cc2ccc(OC)c(OC)c2)C=C(C(=O)OC)C1c1cccc(F)c1` was tested, and the inhibition was inconclusive: 34.1%. In the case of `O=[N+]([O-])c1ccc(N2CCCNCC2)c2ncccc12`, the inhibition is reported as inconclusive: -32.4%. For `CC1=NN(C(=O)c2c(Br)c(C)nn2C)C(O)(C(F)(F)F)C1` (stereo unspecified), the inhibition was inactive: -2.9%. For `CN1C(=O)C(CC(=O)Nc2ccc(F)cc2)N(NC(=O)c2cccc(F)c2)C1=S` (stereo unspecified), the inhibition was inconclusive: 7%. `O=C(Nc1ccc(N2CCN(C(=O)c3ccccc3)CC2)cc1)c1cccs1` was tested, and the inhibition was inactive: 5.3%. With `O=[N+]([O-])c1cccc(-n2nncc2-c2ccccc2)c1` the inhibition was inconclusive: -4.2%. With `CSc1c(CC(=O)NCCCO)n(Cc2ccccc2)c2ccccc12` the inhibition was inconclusive: 5.3%. For `CCN1C(=O)/C(=C/N2CCc3ccccc3C2)SC1=S`, the inhibition was inconclusive: -291%. `COc1ccc(/C(C)=N/Nc2nc3ccccc3nc2C)cc1OC` was tested, and the inhibition was inconclusive: -83.9%. In the case of `CCOC(=O)N1CCN(S(=O)(=O)c2ccc(C)cc2)CC1`, the inhibition is reported as inconclusive: -26%. `COc1cc(Br)c(C(=O)c2nccc3cc(OC)c(OC)cc23)cc1OC` was tested, and the inhibition was inconclusive: -28.1%. In the case of `N/C(=N\OC(=O)Cc1cccs1)c1ccc(Cl)cc1`, the inhibition is reported as inconclusive: 1.9%. `COc1ccccc1NC(=S)NCc1ccccc1Cl` was tested, and the inhibition was inconclusive: -33.1%. In the case of `Cc1cccc(C2NS(=O)(=O)N=C2N)c1` (stereo unspecified), the inhibition is reported as inconclusive: 47.7%. In the case of `COC(=O)C1=C(c2ccc(OC(F)(F)F)cc2)C[C@@H]2CC[C@H]1N2C(=O)NCc1cccc2ccccc12`, the inhibition is reported as inactive: 3.6%. In the case of `CCCN(C(=O)c1ccc(OCC(C)C)cc1)c1c(N)n(Cc2ccccc2)c(=O)[nH]c1=O`, the inhibition is reported as inconclusive: -11.4%. With `Cc1ccc(S(=O)(=O)NNc2c3ccccc3nc3ccc(Cl)cc23)cc1` the inhibition was inactive: -29.4%. `CC(C)(C)c1cc(C(=O)NCc2cc(F)cc3c2OCOC3)n(Cc2ccccc2)n1` was tested, and the inhibition was inconclusive: -39.2%. With `CCCCc1c(C)nc2nc(SCc3ccc(Cl)cc3)[nH]n2c1=O` the inhibition was inconclusive: -18.6%. With `Cc1cccc(Cl)c1NC(=O)NCCCN1CCCCC1C` (stereo unspecified) the inhibition was inactive: -7.2%. For `N#CC(C#N)=C(C#N)c1ccc(Nc2ccccc2)cc1`, the inhibition was inconclusive: 25.6%. In the case of `COc1ccc(OC)c(C2C(C(=O)O)c3ccccc3C(=O)N2C)c1` (stereo unspecified), the inhibition is reported as inconclusive: 25.3%. For `Cc1ccccc1C(=O)NCc1ccncc1`, the inhibition was inconclusive: 5.8%. With `O=C1COc2ccc(C(=O)CCl)cc2N1` the inhibition was inconclusive: 21.4%. In the case of `Cc1ccnc(-n2c(C)cc(/C=N/NC(=O)COc3cccc4cccnc34)c2C)c1`, the inhibition is reported as inconclusive: 42.1%. In the case of `Clc1cc2c(c(CSc3nc4ccccc4n4cccc34)c1)OCOC2`, the inhibition is reported as inconclusive: -15.8%. For `CCCCOC(=O)Nc1nnc(CC(=O)NCc2ccccc2)s1`, the inhibition was inconclusive: -14.9%. In the case of `O=C(O)CN1C(=O)CC(c2ccccc2)CC1=O`, the inhibition is reported as inconclusive: -6%. With `COc1ccc(N2CCN(C3CCCN(Cc4cccc(C(C)=O)c4)C3)CC2)cc1` (stereo unspecified) the inhibition was inconclusive: 40%. In the case of `O=C(NN1C(=O)C2C(C1=O)C1C=CC2C12CC2)c1ccc(Cl)cc1` (stereo unspecified), the inhibition is reported as inconclusive: -0.4%. For `Nc1nnc(SCc2c(F)cccc2Cl)s1`, the inhibition was inconclusive: -34%. With `O=C(NCCN1CCCC1)c1ccc(Br)cc1` the inhibition was inconclusive: -0.3%. In the case of `Cc1ccc(N=C(N)N=C(N)N)cc1`, the inhibition is reported as inconclusive: 2.5%. With `COc1ccc2c(c1)cc(C(=O)N[C@@H](Cc1ccccc1)C(=O)N[C@@H](C)C(=O)O)n2C` the inhibition was inactive: -8.2%. With `O=C(NCC(=O)N(c1ccccc1)C(C(=O)NC1CCCC1)c1cccnc1)c1ccco1` (stereo unspecified) the inhibition was inconclusive: -13.4%. `CC(C)c1ccccc1NC(=O)COC(=O)c1cc([N+](=O)[O-])ccc1N1CCOCC1` was tested, and the inhibition was inconclusive: -7.3%. `CCOc1ccccc1/C=N/Nc1nc2c(N)ncnc2n1[C@H]1O[C@@H](CO)[C@H](O)[C@@H]1O` was tested, and the inhibition was inconclusive: -30.4%. With `C=CCc1cccc(Cl)c1OCCCNC1CCCC1` the inhibition was inconclusive: -33.2%. `O=C(O)c1nnn(-c2cccc(C(F)(F)F)c2)c1-c1ccccc1` was tested, and the inhibition was inconclusive: 19.8%.
